Data: US7314744B2, “Hyperthermostable protease gene” (Takara Bio Inc., priority 1995, dated 2008)
At least one structure is not confirmed: it was looked up by name or label, or the drawing left a doubt. Numbered stars: 1 amine (or outer) side, 2 acyl side, 3 side chain; on linkers, the order of the positions; unused ones are H or OH. Peptide text beside a SMILES is read from it. CO = O=C([*:1])[*:2]

How the values were obtained:
[1] = test system: enzyme preparation TCES (protease TCES); experiment: Effects of various reagents on enzyme preparation TCES; format: biochemical, Thermococcus celer
Method: The enzyme activity of the enzyme preparation TC-3 obtained in the present invention can be measured using as a substrate Suc-Leu-Leu-Val-Tyr-MCA (SEQ ID NO:43) (manufactured by Peptide Laboratory). That is, the enzyme preparation to be detected for the enzyme activity is appropriately diluted, to 20 μl of the solution is added 80 μl of a 0.1M sodium phosphate buffer (pH 7.0) containing 62.5 μM Suc-Leu-Leu-Val-Tyr-MCA (SEQ ID NO:43), followed by incubating at 75° C. for 30 minutes. After the reaction is stopped by the addition of 20 μl of 30% acetic acid, the fluorescent intensity is measured at the excitation wavelength of 355 nm and the fluorescence wavelength of 460 nm to quantitate an amount of the generated 7-amino-4-methylcoumarin, and the resulting value is compared with that obtained when incubating without the addition of the enzyme preparation, to investigate the enzyme activity.
The effects of various reagents on the enzyme preparations TCES and NAPS-1 obtained by the present invention were investigated. That is, the above enzyme preparations were treated at 37° C. for 30 minutes in the presence of the various reagents at the final concentration of 1 mM, and an aliquot thereof was taken to determine the enzyme activity by the method described in the above (2) to compare with that (control) when no reagent was added.

[2] = test system: enzyme preparation NAPS-1 (protease PFUS); experiment: Effects of various reagents on enzyme preparation NAPS-1; format: biochemical, Pyrococcus furiosus; conditions: treated at 37° C. for 30 minutes, reagent final concentration 1 mM; control 100%
Method: In addition, the enzyme activity of the enzyme preparations NP-1, PT-1, NAPS-1 and NAPS-LS can be photometrically measured using Suc-Ala-Ala-Pro-Phe-p-NA (SEQ ID NO:44) (manufactured by Sigma) as a substrate. That is, an enzyme preparation to be detected for the enzyme activity was appropriately diluted, to 50 μl of the solution was added 50 μl of a 0.1M potassium phosphate buffer (pH 7.0) containing Suc-Ala-Ala-Pro-Phe-p-NA (SEQ ID NO:44) (Suc-Ala-Ala-Pro-Phe-p-NA(SEQ ID NO:44) solution), followed by incubating at 95° C. for 30 minutes. After the reaction was stopped by ice-cooling, the absorbance at 405 nm was measured to quantitate an amount of the generated p-nitroaniline, and the resulting value was compared with that when incubating without the addition of the enzyme preparation, to investigate the enzyme activity. Upon this, a 0.2 mM solution of Suc-Ala-Ala-Pro-Phe-p-NA (SEQ ID NO:44) was used for the enzyme preparations NP-1 and PT-1 and a 1 mM solution was used for the enzyme preparations NAPS-1 and NAPS-1S.
The effects of various reagents on the enzyme preparations TCES and NAPS-1 obtained by the present invention were investigated. […]

In the case of CC(C)[C@H](NC(=O)[C@H](CCCNC(=N)N)NC(=O)N[C@@H](Cc1ccccc1)C(=O)O)C(=O)N[C@H](C=O)CCCNC(=N)N [Antipain] ({Phe-CO}-Arg-Val-Arg-aldehyde), the “effect of reagent on activity of TCES, in words” value ([1]; 37° C., 30 minutes, 1 mM reagent) is reported as “the decrease in the activity was observed”, the “enzyme activity of TCES after treatment with reagent, compared with control (no reagent)” value ([1]; treated at 37° C. for 30 minutes, reagent final concentration 1 mM, control 100%) is reported as 19.0% and the “enzyme activity of NAPS-1 after treatment with reagent, compared with control (no reagent)” value [2] is reported as 81.9%.
